Laboratory results reported in publication PMC5976579.
Where a chain is given by its changes, count along the chain named. Numbers in names are those of the source. These are yes or no findings as the source states them, for the method shown. Binding seen in cells or lysates may run through a third protein. Some results given as binding are weak or reduced against the parent protein; the word gives no strength. For some of these results: Sequences can lack the tags named with a protein. Values belong to the molecule of their own block, whether it stands above or below them.

By UniProt entry, the sequences of proteins in these tests, tags left out.
UniProt P22227: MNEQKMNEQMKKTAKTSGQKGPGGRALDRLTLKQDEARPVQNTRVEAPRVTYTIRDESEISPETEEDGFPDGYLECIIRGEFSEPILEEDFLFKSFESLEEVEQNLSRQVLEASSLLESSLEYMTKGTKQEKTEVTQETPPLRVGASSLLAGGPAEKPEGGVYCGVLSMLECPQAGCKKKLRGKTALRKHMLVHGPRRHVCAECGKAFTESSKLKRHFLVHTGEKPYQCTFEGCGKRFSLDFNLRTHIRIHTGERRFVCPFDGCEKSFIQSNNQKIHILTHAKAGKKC

What was measured:
[1] = target: T1, human RNF12 P587R (human) (UniProt Q9NVW2); experiment: co-IP; Rlim +/y or -/y mouse ESCs transfected with the indicated vectors, treated with 10 uM MG132 for 6 hr; RNF12 immunoprecipitation, immunoblot for REX1 and RNF12
T1 sequence: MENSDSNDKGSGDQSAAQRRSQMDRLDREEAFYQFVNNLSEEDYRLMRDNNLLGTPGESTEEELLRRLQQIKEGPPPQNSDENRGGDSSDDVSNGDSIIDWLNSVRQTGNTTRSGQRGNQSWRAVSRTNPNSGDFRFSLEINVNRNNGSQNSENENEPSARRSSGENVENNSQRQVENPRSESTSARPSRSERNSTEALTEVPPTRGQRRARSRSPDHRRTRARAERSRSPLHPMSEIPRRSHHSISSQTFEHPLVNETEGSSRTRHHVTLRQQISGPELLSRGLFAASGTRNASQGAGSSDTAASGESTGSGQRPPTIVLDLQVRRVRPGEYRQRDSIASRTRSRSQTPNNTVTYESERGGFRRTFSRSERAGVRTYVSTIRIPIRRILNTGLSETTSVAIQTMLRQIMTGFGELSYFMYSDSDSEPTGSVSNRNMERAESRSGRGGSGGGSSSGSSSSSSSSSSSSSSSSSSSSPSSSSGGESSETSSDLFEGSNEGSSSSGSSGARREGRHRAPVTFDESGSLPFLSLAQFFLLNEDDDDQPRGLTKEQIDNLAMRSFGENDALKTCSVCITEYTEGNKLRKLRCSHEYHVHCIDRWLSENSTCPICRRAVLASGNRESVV

[2] = target: T2, human RNF12 R387C (human) (UniProt Q9NVW2); experiment: as above
T2 sequence: T1 sequence with R387C, R587P

[3] = target: T3, human RNF12 R599C (human) (UniProt Q9NVW2); experiment: as above
T3 sequence: T1 sequence with R587P, R599C

[4] = target: T4, human RNF12 Y356C (human) (UniProt Q9NVW2); experiment: as above
T4 sequence: T1 sequence with Y356C, R587P

[5] = target: T5, human RNF12, wild type (human) (UniProt Q9NVW2); experiment: as above
T5 sequence: T1 sequence with R587P

[6] = target: human RNF12, wild type, N-terminally 3FLAG- or HA-tagged (human) (UniProt Q9NVW2); experiment: co-IP; Rlim -/y mouse ESCs transfected with N-terminal FLAG- and HA-tagged RNF12 (WT or XLID mutant); lysates subjected to FLAG immunoprecipitation, immunoblot with FLAG or HA antibodies
[7] = target: human RNF12 Y356C, N-terminally 3FLAG- or HA-tagged (human) (UniProt Q9NVW2); experiment: as above
[8] = target: human RNF12 R387C, N-terminally 3FLAG- or HA-tagged (human) (UniProt Q9NVW2); experiment: as above
[9] = target: human RNF12 P587R, N-terminally 3FLAG- or HA-tagged (human) (UniProt Q9NVW2); experiment: as above
[10] = target: human RNF12 R599C, N-terminally 3FLAG- or HA-tagged (human) (UniProt Q9NVW2); experiment: as above

binding [1]: binds | binding [2]: binds | binding [3]: binds | binding [4]: binds | binding [5]: binds
Molecule: REX1 transcription factor (from UniProt P22227 1-288)

B1: human RNF12, wild type, N-terminally 3FLAG- or HA-tagged (enzyme, UniProt Q9NVW2 1-624)
chain: T1 sequence with R587P
binding [6]: binds

binding [7]: binds
B2: human RNF12 Y356C, N-terminally 3FLAG- or HA-tagged (enzyme, UniProt Q9NVW2 1-624)
chain: T1 sequence with Y356C, R587P

binding [8]: binds
B3: human RNF12 R387C, N-terminally 3FLAG- or HA-tagged (enzyme, UniProt Q9NVW2 1-624)
chain: T1 sequence with R387C, R587P

binding [9]: binds
B4: human RNF12 P587R, N-terminally 3FLAG- or HA-tagged (enzyme, UniProt Q9NVW2 1-624)
chain: T1 sequence

binding [10]: binds
B5: human RNF12 R599C, N-terminally 3FLAG- or HA-tagged (enzyme, UniProt Q9NVW2 1-624)
chain: T1 sequence with R587P, R599C
